From PubChem BioAssay AID286 (DTP/NCI, 2004)
The list shows only some results of the screen, not a fair sample: it gathers tests that were run many times, whatever their T/C, doses with no T/C, and many T/C values between a quarter and a half above the control. Other doses and runs of a compound stand elsewhere. T/C gives the treated animals as a percentage of the vehicle group. Some doses have a count of surviving animals in place of a T/C: the source files T/C as zero there, which appears to mark a toxic dose or a test without result, not a measured value. Some survivor counts are full or nearly so, which does not show that the dose was tolerated: survival well below the control is almost never listed, so the zero probably covers shortened survival too. Survivors were counted at the toxicity check, usually on the fifth day, unless a day is given; later deaths do not show. Schedules are NCI's codes, taken here to give the interval after Q, in days (D) or hours (H), and the number of doses after X. Some entries were tested several times; the values are given in rising order. Where survival is the endpoint, this PubChem deposit counts one and a half times the control or more as active, and values a quarter to a half above the control carry no call in these data; other NCI protocols may use other cut-offs. Additions like (4×) give the number of equal values in this list. Some T/C values are followed by the survivors on the day toxicity was checked, most often the fifth; without a count, all were alive then. Starred links: 1 amine or outer side, 2 acyl side, 3 side chain; linkers in the order of their positions; H or OH if unused. Positions of bridges follow the written chain, without caps; N, C: chain ends. Non-standard residues stand in square brackets, D forms with d. Residues, ends and D or L forms follow the SMILES beside them. Chains are numbered I, II in the order given. ξ: configuration not given here. *: point of attachment. Quinaldoyl(3-OH,6-OMe) = COc1ccc2nc(C(=O)*)c(O)cc2c1; X2 = CC(=O)OC1CC=NN([*:1])C1C(=O)[*:2]; ξNMeVal(3-OH) = CNC(C(=O)O)C(C)(C)O; X3 = O=C(C1CCCNN1[*:1])[*:2]; Sar = CNCC(=O)O

Test system: BDF1 mice, M5076 sarcoma ip, median survival T/C
Assay: NCI In Vivo Anticancer Drug Screen. Data for tumor model Sarcoma M5076 (intraperitoneal) in B6D2F1 (BDF1) mice
Settings: T/C endpoint: median survival time, higher T/C = longer survival
Description: The antitumor activity of compounds was measured in mice bearing transplantable tumors. Survival or tumor size were measured and the results are expressed as the measurement made in the treated group (T) divided by the measurement made in the vehicle treated control group (C). The tumor model used in this assay is Sarcoma M5076 (intraperitoneal) in B6D2F1 (BDF1) mice

[1] = dose: 800.0 mg/kg/injection, schedule: Q04DX004 (ip), vehicle: saline
[2] = dose: 800.0 mg/kg/injection, schedule: Q04DX005 (ip), vehicle: saline
[3] = dose: 400.0 mg/kg/injection, schedule: Q04DX004 (ip), vehicle: saline with Tween-80
[4] = dose: 800.0 mg/kg/injection, schedule: Q04DX004 (ip), vehicle: saline with Tween-80
[5] = dose: 100.0 mg/kg/injection, schedule: Q04DX004 (ip), vehicle: saline with Tween-80
[6] = dose: 200.0 mg/kg/injection, schedule: Q04DX004 (ip), vehicle: saline with Tween-80
[7] = dose: 800.0 mg/kg/injection, schedule: Q04DX005 (ip), vehicle: saline with Tween-80

Structure (SMILES): COc1ccc2nc(C(=O)NC3COC(=O)C(C(C)(C)O)N(C)C(=O)CN(C)C(=O)CNC(=O)C4CCCNN4C(=O)C(NC(=O)c4nc5ccc(OC)cc5cc4O)COC(=O)C(C(C)(C)O)N(C)C(=O)CN(C)C(=O)CNC(=O)C4C(OC(C)=O)CC=NN4C3=O)c(O)cc2c1 (stereo unspecified) (I: {Quinaldoyl(3-OH,6-OMe)}-S[X2]G[Sar][ξNMeVal(3-OH)] / II: {Quinaldoyl(3-OH,6-OMe)}-S[X3]G[Sar][ξNMeVal(3-OH)]; ester I:1-II:C, I:C-II:1; configuration not given here)
- T/C (dose: 1.25 micrograms/kg/injection, schedule: Q01DX009 (ip), vehicle: DMSO): 128 % of control
- T/C (dose: 2.5 micrograms/kg/injection, schedule: Q01DX009 (ip), vehicle: DMSO): 126 % of control
- T/C (dose: 5.0 micrograms/kg/injection, schedule: Q01DX009 (ip), vehicle: DMSO): 129 % of control
- survivor count (dose: 100.0 micrograms/kg/injection, schedule: Q01DX009 (ip), vehicle: DMSO): 2 of 10 on day 9
- survivor count (dose: 200.0 micrograms/kg/injection, schedule: Q01DX009 (ip), vehicle: DMSO): 0 of 10 on day 9

Structure (SMILES): COc1cc2cc3c(c(O)c2c(O)c1/C=C/C(C)C)C(=O)CC(C)(OC(C)=O)C3 (stereo unspecified)
- T/C (dose: 2.5 mg/kg/injection, schedule: Q01DX009 (ip), vehicle: Klucel (hydroxypropylcellulose) (HPC)): 135 [9 of 10 alive on day 9] and 140 % of control
- T/C (dose: 5.0 mg/kg/injection, schedule: Q01DX009 (ip), vehicle: Klucel (hydroxypropylcellulose) (HPC)): 145 % of control (2×)
- survivor count (dose: 10.0 mg/kg/injection, schedule: Q01DX009 (ip), vehicle: Klucel (hydroxypropylcellulose) (HPC)): 10 of 10 on day 9

Structure (SMILES): OC(CBr)C(O)C(O)C(O)CBr (stereo unspecified)
- T/C (dose: 180.0 mg/kg/injection, schedule: Q04DX005 (ip), vehicle: saline with Tween-80): 133 % of control
- T/C (dose: 300.0 mg/kg/injection, schedule: Q04DX005 (ip), vehicle: saline with Tween-80): 143 % of control [9 of 10 alive on day 17]

Structure (SMILES): c1cc2n(n1)CCN2
- T/C (dose: 100.0 mg/kg/injection, schedule: Q04DX004 (ip), vehicle: saline): 90, 98, 104, 105, 110 % of control
- T/C (dose: 100.0 mg/kg/injection, schedule: Q04DX005 (ip), vehicle: saline): 93, 96, 106, 108, 114 % of control
- T/C (dose: 200.0 mg/kg/injection, schedule: Q04DX004 (ip), vehicle: saline): 96, 104, 105, 106 % of control (2×)
- T/C (dose: 200.0 mg/kg/injection, schedule: Q04DX005 (ip), vehicle: saline): 90, 103, 104, 109, 116 % of control
- T/C (dose: 400.0 mg/kg/injection, schedule: Q04DX004 (ip), vehicle: saline): 99, 103, 112, 113 % of control (2×)
- T/C (dose: 400.0 mg/kg/injection, schedule: Q04DX005 (ip), vehicle: saline): 93, 109, 110, 114, 116 % of control [9 of 10 alive on day 9]
- T/C [1]: 104, 113 [9 of 10 alive on day 9], 124 % of control [7 of 10 alive on day 9]
- survivor count [1]: 1 of 10 on day 9
- T/C [2]: 114 and 124 % of control
- survivor count [2]: 0 of 10 on day 9, 2 of 10 on day 9, 5 of 10 on day 9

Structure (SMILES): S=c1nc[nH]c2nc[nH]c12
- T/C (dose: 40.0 mg/kg/injection, schedule: Q04DX005 (ip), vehicle: alkali diluted with saline): 131 % of control [7 of 8 alive on day 17]
- T/C (dose: 160.0 mg/kg/injection, schedule: Q04DX005 (ip), vehicle: alkali diluted with saline): 141 % of control
- survivor count (dose: 320.0 mg/kg/injection, schedule: Q04DX005 (ip), vehicle: alkali diluted with saline): 7 of 8 on day 17

Structure (SMILES): CN=C(N)N/N=C(\C)c1ccc2sc3ccc(/C(C)=N/NC(N)=NC)cc3c2c1
- T/C [3]: 130 % of control
- survivor count [4]: 3 of 10 on day 14

Structure (SMILES): CCN(CC)CCNc1ccc(C)c2sc3ccccc3c(=O)c12
- T/C (dose: 80.0 mg/kg/injection, schedule: Q04DX004 (ip), vehicle: water): 125 % of control

Structure (SMILES): C=C1C(=O)OC2C(OC(C)=O)C1C(OC(=O)C(C)CC)[C@]1(C)C(=O)C=C[C@H]1[C@@H]2C (stereo partly specified)
- survivor count (dose: 20.0 mg/kg/injection, schedule: Q01DX009 (ip), vehicle: Klucel (hydroxypropylcellulose) (HPC)): 3 of 10 on day 9

Structure (SMILES): C=C1C(O)C2OC3(CCC(/C=C/C(C)C4CC5(C)SC5C5(OC(CC(C)(O)C(=O)O)CCC5O)O4)O3)CCC2OC1C(O)CC(C)C1OC2(CCCCO2)CCC1C (stereo unspecified)
- T/C (dose: 4.0 micrograms/kg/injection, schedule: Q01DX009 (ip), vehicle: saline + alcohol): 128 % of control
- survivor count (dose: 5.0 micrograms/kg/injection, schedule: Q01DX009 (ip), vehicle: saline + alcohol): 0 of 10 on day 9
- T/C (dose: 8.0 micrograms/kg/injection, schedule: Q01DX009 (ip), vehicle: saline + alcohol): 140 % of control
- survivor count (dose: 10.0 micrograms/kg/injection, schedule: Q01DX009 (ip), vehicle: saline + alcohol): 0 of 10 on day 9
- survivor count (dose: 20.0 micrograms/kg/injection, schedule: Q01DX009 (ip), vehicle: saline + alcohol): 0 of 10 on day 9
- survivor count (dose: 40.0 micrograms/kg/injection, schedule: Q01DX009 (ip), vehicle: saline + alcohol): 0 of 10 on day 9

Structure (SMILES): CC(CN1CC(=O)NC(=O)C1)N1CC(=O)NC(=O)C1 (stereo unspecified)
- T/C [5]: 106, 107, 112, 121 % of control
- T/C (dose: 100.0 mg/kg/injection, schedule: Q04DX005 (ip), vehicle: saline with Tween-80): 106, 110, 121 % of control (2×)
- T/C [6]: 109, 112, 114, 118 % of control
- T/C (dose: 200.0 mg/kg/injection, schedule: Q04DX005 (ip), vehicle: saline with Tween-80): 111, 113, 130, 134 % of control
- T/C [3]: 112, 120 [9 of 10 alive on day 9], 126 [9 of 10 alive on day 9], 131 % of control [9 of 10 alive on day 9]
- T/C (dose: 400.0 mg/kg/injection, schedule: Q04DX005 (ip), vehicle: saline with Tween-80): 111, 124, 125, 131 % of control
- T/C [4]: 114 [9 of 10 alive on day 9] and 138 % of control [9 of 10 alive on day 9]
- survivor count [4]: 7 of 10 on day 9 and 8 of 10 on day 9
- T/C [7]: 120, 120 [8 of 9 alive on day 9], 150 % of control [8 of 10 alive on day 9]
- survivor count [7]: 8 of 10 on day 9

Structure (SMILES): COc1cc2c(cc1OC)[C@@H]1C(=O)c3ccc4c(c3O[C@@H]1CO2)C[C@H](C(C)C)O4
- T/C (dose: 3.12 mg/kg/injection, schedule: Q01DX009 (ip), vehicle: Klucel (hydroxypropylcellulose) (HPC)): 127 % of control
- T/C (dose: 6.25 mg/kg/injection, schedule: Q01DX009 (ip), vehicle: Klucel (hydroxypropylcellulose) (HPC)): 125 % of control
- survivor count (dose: 12.5 mg/kg/injection, schedule: Q01DX009 (ip), vehicle: Klucel (hydroxypropylcellulose) (HPC)): 1 of 10 on day 9
- survivor count (dose: 25.0 mg/kg/injection, schedule: Q01DX009 (ip), vehicle: Klucel (hydroxypropylcellulose) (HPC)): 0 of 10 on day 9 and 2 of 10 on day 9

Structure (SMILES): COc1cc(NCc2ccc3nc(N)nc(N)c3c2C)cc(OC)c1OC
- T/C (dose: 7.5 mg/kg/injection, schedule: Q04DX005 (ip), vehicle: Klucel (hydroxypropylcellulose) (HPC)): 141 % of control
- survivor count (dose: 40.0 mg/kg/injection, schedule: Q01DX009 (ip), vehicle: Klucel (hydroxypropylcellulose) (HPC)): 0 of 5
- survivor count (dose: 120.0 mg/kg/injection, schedule: Q04DX005 (ip), vehicle: Klucel (hydroxypropylcellulose) (HPC)): 9 of 10 on day 9

Structure (SMILES): CCCCCCCCCCCCCCCC(=O)O[C@@H]1[C@@H](C)[C@@]2(O)[C@@H](C=C(CO)C[C@]3(O)C(=O)C(C)=C[C@@H]23)[C@H]2[C@]1(OC(C)=O)[C@]2(C)CO
- survivor count (dose: 500.0 micrograms/kg/injection, schedule: Q01DX009 (ip), vehicle: distilled water + Tween-80): 5 of 10 on day 9
- survivor count (dose: 1000.0 micrograms/kg/injection, schedule: Q01DX009 (ip), vehicle: distilled water + Tween-80): 0 of 10 on day 9

Structure (SMILES): C/C(=N\NC(=S)N1CC2CCC(CC2)C1)c1nccs1
- survivor count (dose: 50.0 mg/kg/injection, schedule: Q04DX004 (ip), vehicle: saline with Tween-80): 8 of 10 on day 14
- survivor count [5]: 1 of 10 on day 14
- survivor count [6]: 0 of 10 on day 14

Structure (SMILES): Cc1c2ccccc2c(C)c2c1cc(C(=O)O)c1ccccc12
- T/C (dose: 50.0 mg/kg/injection, schedule: Q04DX004 (ip), vehicle: sodium bicarbonate): 128 % of control
